# The supplement of paper PMC11546906
# The list shows a part of the results. Repeats in this data set agree poorly, so a single value says little.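 Screen of FDA-approved drugs, each combined with colistin at one-eighth of its MIC, against a multidrug-resistant mcr-1-positive clinical E. coli isolate; growth read as OD600 after 24 h. Bacteria without drug were the growth control and plain broth the blank. A combination counted as active when OD600 fell below 0.2.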
# Test system: Escherichia coli 42 (mcr-1-positive clinical isolate)
# Test: OD600 after 24 h growth with compound plus colistin (absorbance units (OD600)); higher = more bacterial growth (less inhibition)
# Settings: first compound 25 µM; colistin concentration 0.5 ug/mL; incubation time 24 h; 37 °C
row,Structure (SMILES),OD600
1,Nc1nc(CC(=O)Nc2ccc(CCNC[C@H](O)c3ccccc3)cc2)cs1 [Mirabegron] + CCC(C)CCCC(=O)N[C@@H](CCN)C(=O)N[C@H](C(=O)N[C@@H](CCN)C(=O)N[C@H]1CCNC(=O)[C@H]([C@@H](C)O)NC(=O)[C@H](CCN)NC(=O)[C@H](CCN)NC(=O)[C@H](CC(C)C)NC(=O)[C@@H](CC(C)C)NC(=O)[C@H](CCN)NC1=O)[C@@H](C)O [colistin],inactive: 1.03
2,O=c1[nH]cnc2c1ncn2[C@H]1CC[C@@H](CO)O1 [Didanosine] + CCC(C)CCCC(=O)N[C@@H](CCN)C(=O)N[C@H](C(=O)N[C@@H](CCN)C(=O)N[C@H]1CCNC(=O)[C@H]([C@@H](C)O)NC(=O)[C@H](CCN)NC(=O)[C@H](CCN)NC(=O)[C@H](CC(C)C)NC(=O)[C@@H](CC(C)C)NC(=O)[C@H](CCN)NC1=O)[C@@H](C)O [colistin],inactive: 0.677
3,CC(=O)OC[C@H]1O[C@@H]([S-])[C@H](OC(C)=O)[C@@H](OC(C)=O)[C@@H]1OC(C)=O.CCP(CC)CC.[Au+] [Auranofin] + CCC(C)CCCC(=O)N[C@@H](CCN)C(=O)N[C@H](C(=O)N[C@@H](CCN)C(=O)N[C@H]1CCNC(=O)[C@H]([C@@H](C)O)NC(=O)[C@H](CCN)NC(=O)[C@H](CCN)NC(=O)[C@H](CC(C)C)NC(=O)[C@@H](CC(C)C)NC(=O)[C@H](CCN)NC1=O)[C@@H](C)O [colistin],active: 0.036
4,O=C(CCCCCCC(=O)Nc1ccccc1)NO [Vorinostat] + CCC(C)CCCC(=O)N[C@@H](CCN)C(=O)N[C@H](C(=O)N[C@@H](CCN)C(=O)N[C@H]1CCNC(=O)[C@H]([C@@H](C)O)NC(=O)[C@H](CCN)NC(=O)[C@H](CCN)NC(=O)[C@H](CC(C)C)NC(=O)[C@@H](CC(C)C)NC(=O)[C@H](CCN)NC1=O)[C@@H](C)O [colistin],inactive: 0.678
5,CO/N=C(\C(=O)N[C@@H]1C(=O)N2C(C(=O)O)=C(COC(N)=O)CS[C@H]12)c1ccco1 [Cefuroxime sodium] + CCC(C)CCCC(=O)N[C@@H](CCN)C(=O)N[C@H](C(=O)N[C@@H](CCN)C(=O)N[C@H]1CCNC(=O)[C@H]([C@@H](C)O)NC(=O)[C@H](CCN)NC(=O)[C@H](CCN)NC(=O)[C@H](CC(C)C)NC(=O)[C@@H](CC(C)C)NC(=O)[C@H](CCN)NC1=O)[C@@H](C)O [colistin],active: 0.036
6,O=C(O)CCCc1ccccc1 [Sodium 4-phenylbutyrate] + CCC(C)CCCC(=O)N[C@@H](CCN)C(=O)N[C@H](C(=O)N[C@@H](CCN)C(=O)N[C@H]1CCNC(=O)[C@H]([C@@H](C)O)NC(=O)[C@H](CCN)NC(=O)[C@H](CCN)NC(=O)[C@H](CC(C)C)NC(=O)[C@@H](CC(C)C)NC(=O)[C@H](CCN)NC1=O)[C@@H](C)O [colistin],inactive: 1.07
7,CO[C@H]1C[C@@H]2CC[C@@H](C)[C@@](O)(O2)C(=O)C(=O)N2CCCC[C@H]2C(=O)O[C@H]([C@H](C)C[C@@H]2CC[C@@H](OC(=O)C(C)(CO)CO)[C@H](OC)C2)CC(=O)[C@H](C)/C=C(\C)[C@@H](O)[C@@H](OC)C(=O)[C@H](C)C[C@H](C)/C=C/C=C/C=C/1C [Temsirolimus] + CCC(C)CCCC(=O)N[C@@H](CCN)C(=O)N[C@H](C(=O)N[C@@H](CCN)C(=O)N[C@H]1CCNC(=O)[C@H]([C@@H](C)O)NC(=O)[C@H](CCN)NC(=O)[C@H](CCN)NC(=O)[C@H](CC(C)C)NC(=O)[C@@H](CC(C)C)NC(=O)[C@H](CCN)NC1=O)[C@@H](C)O [colistin],inactive: 0.914
8,CCCCCCCCCCC[C@@H](C[C@@H]1OC(=O)[C@H]1CCCCCC)OC(=O)[C@H](CC(C)C)NC=O [Orlistat] + CCC(C)CCCC(=O)N[C@@H](CCN)C(=O)N[C@H](C(=O)N[C@@H](CCN)C(=O)N[C@H]1CCNC(=O)[C@H]([C@@H](C)O)NC(=O)[C@H](CCN)NC(=O)[C@H](CCN)NC(=O)[C@H](CC(C)C)NC(=O)[C@@H](CC(C)C)NC(=O)[C@H](CCN)NC1=O)[C@@H](C)O [colistin],inactive: 1.15
9,Cc1cc2c(s1)Nc1ccccc1N=C2N1CCN(C)CC1 [Olanzapine] + CCC(C)CCCC(=O)N[C@@H](CCN)C(=O)N[C@H](C(=O)N[C@@H](CCN)C(=O)N[C@H]1CCNC(=O)[C@H]([C@@H](C)O)NC(=O)[C@H](CCN)NC(=O)[C@H](CCN)NC(=O)[C@H](CC(C)C)NC(=O)[C@@H](CC(C)C)NC(=O)[C@H](CCN)NC1=O)[C@@H](C)O [colistin],inactive: 0.856
10,C[C@@](Cc1ccc(O)c(O)c1)(NN)C(=O)O [Carbidopa monohydrate] + CCC(C)CCCC(=O)N[C@@H](CCN)C(=O)N[C@H](C(=O)N[C@@H](CCN)C(=O)N[C@H]1CCNC(=O)[C@H]([C@@H](C)O)NC(=O)[C@H](CCN)NC(=O)[C@H](CCN)NC(=O)[C@H](CC(C)C)NC(=O)[C@@H](CC(C)C)NC(=O)[C@H](CCN)NC1=O)[C@@H](C)O [colistin],inactive: 0.916
11,Cc1cn(-c2cc(NC(=O)c3ccc(C)c(Nc4nccc(-c5cccnc5)n4)c3)cc(C(F)(F)F)c2)cn1 [Nilotinib] + CCC(C)CCCC(=O)N[C@@H](CCN)C(=O)N[C@H](C(=O)N[C@@H](CCN)C(=O)N[C@H]1CCNC(=O)[C@H]([C@@H](C)O)NC(=O)[C@H](CCN)NC(=O)[C@H](CCN)NC(=O)[C@H](CC(C)C)NC(=O)[C@@H](CC(C)C)NC(=O)[C@H](CCN)NC1=O)[C@@H](C)O [colistin],inactive: 1.03
12,CN(C)C/C=C/C(=O)Nc1cc2c(Nc3ccc(F)c(Cl)c3)ncnc2cc1O[C@H]1CCOC1 [Afatinib] + CCC(C)CCCC(=O)N[C@@H](CCN)C(=O)N[C@H](C(=O)N[C@@H](CCN)C(=O)N[C@H]1CCNC(=O)[C@H]([C@@H](C)O)NC(=O)[C@H](CCN)NC(=O)[C@H](CCN)NC(=O)[C@H](CC(C)C)NC(=O)[C@@H](CC(C)C)NC(=O)[C@H](CCN)NC1=O)[C@@H](C)O [colistin],inactive: 0.926
13,CCN(CC)CCNC(=O)c1c(C)[nH]c(/C=C2\C(=O)Nc3ccc(F)cc32)c1C [Sunitinib Malate] + CCC(C)CCCC(=O)N[C@@H](CCN)C(=O)N[C@H](C(=O)N[C@@H](CCN)C(=O)N[C@H]1CCNC(=O)[C@H]([C@@H](C)O)NC(=O)[C@H](CCN)NC(=O)[C@H](CCN)NC(=O)[C@H](CC(C)C)NC(=O)[C@@H](CC(C)C)NC(=O)[C@H](CCN)NC1=O)[C@@H](C)O [colistin],inactive: 1.14
14,N[C@@H](Cc1cc(I)c(Oc2ccc(O)c(I)c2)c(I)c1)C(=O)O [Liothyronine] + CCC(C)CCCC(=O)N[C@@H](CCN)C(=O)N[C@H](C(=O)N[C@@H](CCN)C(=O)N[C@H]1CCNC(=O)[C@H]([C@@H](C)O)NC(=O)[C@H](CCN)NC(=O)[C@H](CCN)NC(=O)[C@H](CC(C)C)NC(=O)[C@@H](CC(C)C)NC(=O)[C@H](CCN)NC1=O)[C@@H](C)O [colistin],inactive: 1.12
15,CCCN[C@H]1CCc2nc(N)sc2C1 [Pramipexole] + CCC(C)CCCC(=O)N[C@@H](CCN)C(=O)N[C@H](C(=O)N[C@@H](CCN)C(=O)N[C@H]1CCNC(=O)[C@H]([C@@H](C)O)NC(=O)[C@H](CCN)NC(=O)[C@H](CCN)NC(=O)[C@H](CC(C)C)NC(=O)[C@@H](CC(C)C)NC(=O)[C@H](CCN)NC1=O)[C@@H](C)O [colistin],inactive: 1.06
16,NCCCCCC(=O)O [6-Aminocaproic acid] + CCC(C)CCCC(=O)N[C@@H](CCN)C(=O)N[C@H](C(=O)N[C@@H](CCN)C(=O)N[C@H]1CCNC(=O)[C@H]([C@@H](C)O)NC(=O)[C@H](CCN)NC(=O)[C@H](CCN)NC(=O)[C@H](CC(C)C)NC(=O)[C@@H](CC(C)C)NC(=O)[C@H](CCN)NC1=O)[C@@H](C)O [colistin],inactive: 0.983
17,CCN(CC)C(=O)[C@]1(c2ccccc2)C[C@@H]1CN [Dextromilnacipran] + CCC(C)CCCC(=O)N[C@@H](CCN)C(=O)N[C@H](C(=O)N[C@@H](CCN)C(=O)N[C@H]1CCNC(=O)[C@H]([C@@H](C)O)NC(=O)[C@H](CCN)NC(=O)[C@H](CCN)NC(=O)[C@H](CC(C)C)NC(=O)[C@@H](CC(C)C)NC(=O)[C@H](CCN)NC1=O)[C@@H](C)O [colistin],inactive: 1.08
18,O=c1[nH]cc(F)c(=O)[nH]1 [5-Fluorouracil] + CCC(C)CCCC(=O)N[C@@H](CCN)C(=O)N[C@H](C(=O)N[C@@H](CCN)C(=O)N[C@H]1CCNC(=O)[C@H]([C@@H](C)O)NC(=O)[C@H](CCN)NC(=O)[C@H](CCN)NC(=O)[C@H](CC(C)C)NC(=O)[C@@H](CC(C)C)NC(=O)[C@H](CCN)NC1=O)[C@@H](C)O [colistin],inactive: 0.712
19,Cc1ccc(C(=O)Nc2ccc(CN3CCN(C)CC3)c(C(F)(F)F)c2)cc1C#Cc1cnc2cccnn12 [Ponatinib] + CCC(C)CCCC(=O)N[C@@H](CCN)C(=O)N[C@H](C(=O)N[C@@H](CCN)C(=O)N[C@H]1CCNC(=O)[C@H]([C@@H](C)O)NC(=O)[C@H](CCN)NC(=O)[C@H](CCN)NC(=O)[C@H](CC(C)C)NC(=O)[C@@H](CC(C)C)NC(=O)[C@H](CCN)NC1=O)[C@@H](C)O [colistin],inactive: 0.791

# Some of the entries above in a different format.
row | Structure (SMILES) | OD600
11 | Cc1cn(-c2cc(NC(=O)c3ccc(C)c(Nc4nccc(-c5cccnc5)n4)c3)cc(C(F)(F)F)c2)cn1 [Nilotinib] + CCC(C)CCCC(=O)N[C@@H](CCN)C(=O)N[C@H](C(=O)N[C@@H](CCN)C(=O)N[C@H]1CCNC(=O)[C@H]([C@@H](C)O)NC(=O)[C@H](CCN)NC(=O)[C@H](CCN)NC(=O)[C@H](CC(C)C)NC(=O)[C@@H](CC(C)C)NC(=O)[C@H](CCN)NC1=O)[C@@H](C)O [colistin] | inactive: 1.03
12 | CN(C)C/C=C/C(=O)Nc1cc2c(Nc3ccc(F)c(Cl)c3)ncnc2cc1O[C@H]1CCOC1 [Afatinib] + CCC(C)CCCC(=O)N[C@@H](CCN)C(=O)N[C@H](C(=O)N[C@@H](CCN)C(=O)N[C@H]1CCNC(=O)[C@H]([C@@H](C)O)NC(=O)[C@H](CCN)NC(=O)[C@H](CCN)NC(=O)[C@H](CC(C)C)NC(=O)[C@@H](CC(C)C)NC(=O)[C@H](CCN)NC1=O)[C@@H](C)O [colistin] | inactive: 0.926
13 | CCN(CC)CCNC(=O)c1c(C)[nH]c(/C=C2\C(=O)Nc3ccc(F)cc32)c1C [Sunitinib Malate] + CCC(C)CCCC(=O)N[C@@H](CCN)C(=O)N[C@H](C(=O)N[C@@H](CCN)C(=O)N[C@H]1CCNC(=O)[C@H]([C@@H](C)O)NC(=O)[C@H](CCN)NC(=O)[C@H](CCN)NC(=O)[C@H](CC(C)C)NC(=O)[C@@H](CC(C)C)NC(=O)[C@H](CCN)NC1=O)[C@@H](C)O [colistin] | inactive: 1.14
14 | N[C@@H](Cc1cc(I)c(Oc2ccc(O)c(I)c2)c(I)c1)C(=O)O [Liothyronine] + CCC(C)CCCC(=O)N[C@@H](CCN)C(=O)N[C@H](C(=O)N[C@@H](CCN)C(=O)N[C@H]1CCNC(=O)[C@H]([C@@H](C)O)NC(=O)[C@H](CCN)NC(=O)[C@H](CCN)NC(=O)[C@H](CC(C)C)NC(=O)[C@@H](CC(C)C)NC(=O)[C@H](CCN)NC1=O)[C@@H](C)O [colistin] | inactive: 1.12
15 | CCCN[C@H]1CCc2nc(N)sc2C1 [Pramipexole] + CCC(C)CCCC(=O)N[C@@H](CCN)C(=O)N[C@H](C(=O)N[C@@H](CCN)C(=O)N[C@H]1CCNC(=O)[C@H]([C@@H](C)O)NC(=O)[C@H](CCN)NC(=O)[C@H](CCN)NC(=O)[C@H](CC(C)C)NC(=O)[C@@H](CC(C)C)NC(=O)[C@H](CCN)NC1=O)[C@@H](C)O [colistin] | inactive: 1.06
